The values are deposited in ChEMBL (CHEMBL3988442, “University of Dundee, Small-Polar-MMV Screening Library” (2021)).

The filed quantity is “Percent Effect” (%).
The controls that fix the scale are not given in the record; negative values are as filed.
Compounds were drawn at random from those tested, without regard to their results.
Two or more numbers in one place are separate tests of the same structure; such repeats can differ widely.

A: 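Phenotypic screen: M. tuberculosis growth, cholesterol and DPPC medium, 4 days; the read-out is not stated. Compounds at 50 µM. Higher reads as more growth inhibition (inferred: compounds with an IC50 in retests scored well above the rest). Size under these conditions: about 69,000 compounds, about 370 of them at 50% or above in at least one test.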
B: 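Growth of Mycobacterium tuberculosis over 3 days (7H9 medium with glucose and tyloxapol); the read-out is not stated. Concentration: 50 µM. The record gives no direction; compounds that gave an IC50 in retests scored well above the rest, so higher reads as more growth inhibition. Size under these conditions: about 69,000 compounds, about 760 of them at 50% or above in at least one test.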

SMILES | A | B
CCC(=O)N1CCN(Cc2cc(-c3ccncc3)nn2C)CC1 | -16.87% | -23.76%
COc1cccc(C(=O)N2C[C@@H](C(=O)O)[C@H](c3ccccc3C)C2)c1 | -3.607% | -3.069% and -18.92%
Cc1ccc(CN2CCC(c3nnc(CN4CCCCC4)n3C)CC2)o1 | -9.112% | -28.47%
CCC(C)CN1CCC(n2cc(C3CCCCC3)nn2)CC1 (stereo not drawn) | 33.84% and 1.312% | 30.39%
CC(=O)NCC(=O)NC1CCc2nccn2C1 (stereo not drawn) | -1.533% and -12.64% | -45.67%
CCOCC(=O)N1Cc2[nH]nc(COCC3CC3)c2C1.O=C(O)C(F)(F)F | -21.46% | -25.1% and -11.38%
COCCN(Cc1nc2c(cnn2C)c(=O)[nH]1)C(C)c1ccccc1 (stereo not drawn) | -22.19% | -15.69%
Cc1cc(-c2cnc(NC3CCCCC3)nc2-c2ccco2)on1 | 17.09% | 33.75%
COc1cccc(C2CCCN2C(=O)c2cc3c(nc2OC)CCC3)c1 (stereo not drawn) | 11.26% | 19.24%
COc1ccc(C(=O)NC2CC2)c(OC2CCN(CCCSC)CC2)c1 | 7.258% and 4.098% | 18.7%
CCn1cc(NC(=O)c2cccc(CN3C[C@@H](C)O[C@@H](C)C3)c2)nn1 | 22.4% | 26.92% and 29.41%
CN1CCN(CCOc2ccc(NC(=O)c3ccc[nH]3)cc2)CC1 | -10.33% | -14.58%
Cc1nc(CN(Cc2ccccc2)C2CCS(=O)(=O)C2)oc1C (stereo not drawn) | 14.84% | 11.55%
CCOc1ncccc1CN1Cc2ncccc2C1=O | 5.968% | -3.068%
COCCN(C)C[C@@H]1CN(Cc2ccnc3ccccc23)C[C@@H]1CO | 2.267% | 18.59%
O=C(N[C@@H]1CCNC[C@H]1O)c1ccccc1OC(F)(F)C(F)F | 9.31% | 4.715% and 8.94%
COc1ccc(-c2c[nH]c(C3CC(=O)N(CC(C)C)C3)n2)cc1 (stereo not drawn) | 8.113% | 26.33%
O=C(NCCc1ccc(Cl)s1)N1CCS(=O)(=O)CC1 | -14.21% | -9.924%
COC(=O)c1ccc2ccn(CC3CCCN(C)C3)c(=O)c2c1 (stereo not drawn) | 3.75% and -2.893% | -2.479%
CNc1cc(C)nc(C2COCCN2Cc2csc(C)n2)n1 (stereo not drawn) | 10.95% and 0.3686% | 10.81%
[H][C@]12CC[C@]([H])(CN(C(=O)c3csc(Cc4ccccc4)n3)C1)N(C)C2=O | -3.247% | -15%
[H][C@]12CN(CC3CC3)C(=O)[C@@]1([H])CN(S(=O)(=O)CC)C2 | -13.68% | -10.03%
c1cc(-c2c[nH]c([C@@H]3COCCN3C3CCOCC3)n2)ccn1 | -4.127% | -1.324% and -23.29%
N#CCCCN1CCCC1Cc1ccccc1 (stereo not drawn) | -0.06274% | -0.7878%
Cc1ccc(NCc2ccco2)cc1N1CCOC1=O | -12.01% | -23.93%
CNC(=O)C(CC(C)C)NC(=O)c1cccc(-c2n[nH]c(C)n2)c1 (stereo not drawn) | 22.39% | 11.42%
Cc1ccc(C(C(=O)N(C)CCc2cn[nH]c2)N(C)C)cc1 (stereo not drawn) | 11.13% | -10.74%
CC(C)c1noc(-c2ccc(N(C)C3CCOCC3)nc2)n1 | 3.478% and -3.375% | -28.77%
[H][C@@]12CCCN1C[C@H](CCSC)N(Cc1coc3ccc(C)cc3c1=O)C2 | 7.449% and 7.295% | -8.911%
CCCn1nnnc1CN(c1ccc(C)cc1)C(C)C | -9.79% | -18.17%
COCc1noc(-c2ccc(N3CCCCC3CO)nc2)n1 (stereo not drawn) | 18.65% | -14.49%
O=C(O)C(F)(F)F.[H][C@@]12COC[C@@H](CC(=O)N3CCCC3)[C@]1([H])CN(Cc1ccc(OC)cc1)C2 | -28.09% | -13.08%
O=C(CCn1cnc2ccccc21)N1CCN2CCCCC2C1 (stereo not drawn) | 4.463% | -20.14%
CC(C)c1ncc(Cl)c(C(=O)N2CCN3CCCCC3C2)n1 (stereo not drawn) | -12.23% | -52.1%
N#Cc1c(N2CCCN(C3CCOCC3)CC2)nc2ccccn12 | 0.7348% and -8.795% | -3.089% and -9.606%
CC(O)c1cn(Cc2ccccc2)nn1 (stereo not drawn) | 14.54% | 0.5997% and 21.86%
CS(=O)(=O)CCSCc1cc(F)cc2cccnc12 | 7.747% | -8.612%
CN(C)C(=O)CN1CCC(c2cccc(Cc3ccc(F)cc3)n2)CC1 | -1.322% | -10.67%
Cc1ccc(C(=O)N(C)Cc2cc(Br)cs2)c(=O)[nH]1 | -14.62% | -6.358% and -18.43%
CCCn1nc(C)c(CN(CCN(C)C)Cc2ccccn2)c1C | -29.33% | -11.15%
O=C(c1ccc(S(=O)(=O)N2CCSCC2)cc1)N1CCC(O)C1 (stereo not drawn) | -14.31% | -2.511% and 2.79%
Cc1ccc(-c2nc(CC(=O)N3CCCC(NC(=O)C(C)C)C3)cs2)o1 (stereo not drawn) | -3.205% | -31.11%
CC(C)c1cc(C2CCN(C(=O)Cn3cnnn3)CC2)[nH]n1 | -4.747% | -27.72%
Cn1ccnc1SCCNC(=O)Cn1cnc2ccccc2c1=O | -21.55% and -3.924% | 19.99%
Clc1ccccc1CNC(Cn1cncn1)c1ccccc1 (stereo not drawn) | -3.68% | -29.58%
Cn1cnc2c1C(C(=O)N1CCCC1)N(CC1CC1)CC2.O=C(O)C(F)(F)F (stereo not drawn) | 5.196% | -36.8% and -9.491%
Cc1ccc2cccc(S(=O)(=O)N(C)C3CCCN(C)C3)c2n1 (stereo not drawn) | -17.63% | -28.85%
Cc1nnc(CN2CCC3(CCC(=O)N(C4CC4)C3)CC2)o1 | -5.533% | 2.354% and -17.15%
CC(=O)N1CCn2c(-c3ccccc3)cnc2C12CCNCC2.O=C(O)C(F)(F)F.O=C(O)C(F)(F)F | 8.679% | -12.65% and -3.298%
COc1ccc(OC)c(CNc2c(O)c(=O)c2=O)c1 | -18.41% | 7.106%
O=C(O)C(F)(F)F.O=C(O)C(F)(F)F.c1cncc(COCc2nnn3c2CN(Cc2ccsc2)CC3)c1 | 8.49% | 10.15%
COc1ccc(N2CCN(C(=O)Cn3nc(C)c(C)c3C)C(C)C2)cc1 (stereo not drawn) | -11.48% and 0.3857% | -40.41%
CCOc1cc(C(=O)N2CCCC(c3nc(C)c(C)s3)C2)ccn1 (stereo not drawn) | 6.389% | -1.617%
CCn1nc2c(cc1=O)CN(Cc1nc(C)c3ccccc3n1)CC2 | 0.6209% | -41.69%
CCc1cc(NCCc2cccnc2)n2nc(C)c(C)c2n1 | -0.9347% | 9.471%
CCNC(=O)NC(=O)CNC(C)(CC)c1nccs1 (stereo not drawn) | 3.848% and -6.682% | 5.029%
c1ccc(CN2CCN(Cc3cscn3)CC2)cc1 | -14.56% | 1.074%
Cn1cc(N2CC3(CCN(Cc4ccsc4)CC3)OCC2=O)cn1.O=C(O)C(F)(F)F | -32.68% | -40.79%
CC(C)c1nnc2n1CCN(C(=O)c1ccc(CN(C)C)cc1)C2 | -1.061% | -10.36%
CN(C)C(=O)NCc1nnc2n1CCN(Cc1cccs1)C2 | 6.332% | 0.0332% and -13.64%
CCn1cc(-c2cc(C(F)(F)F)nn2CCC#N)cn1 | 2.671% | -4.611%
O=C(Cn1cnc2sccc2c1=O)NCCc1nnc2ccccn12 | 5.109% | 33.21%
Cc1ccc(-c2noc(C(C)NS(C)(=O)=O)n2)cc1 (stereo not drawn) | -31.4% | -32.8%
CCCc1c(C(=O)N2CCN(c3nccc(OC)n3)CC2)cnn1C | -4.088% | -5.27% and -5.528%
Cc1cc(C(=O)NCc2ccnc(OCC(F)(F)F)c2)on1 | -11% | 4.715%

For reference, 6 entries once more:

{"smiles": "N#Cc1c(N2CCCN(C3CCOCC3)CC2)nc2ccccn12", "A": "0.7348 and -8.795", "B": "-3.089 and -9.606"}
{"smiles": "Cc1ccc(NCc2ccco2)cc1N1CCOC1=O", "A": -12.01, "B": -23.93}
{"smiles": "CCCn1nnnc1CN(c1ccc(C)cc1)C(C)C", "A": -9.79, "B": -18.17}
{"smiles": "CC(C)c1cc(C2CCN(C(=O)Cn3cnnn3)CC2)[nH]n1", "A": -4.747, "B": -27.72}
{"smiles": "CC(=O)N1CCn2c(-c3ccccc3)cnc2C12CCNCC2.O=C(O)C(F)(F)F.O=C(O)C(F)(F)F", "A": 8.679, "B": "-12.65 and -3.298"}
{"smiles": "CC(C)c1noc(-c2ccc(N(C)C3CCOCC3)nc2)n1", "A": "3.478 and -3.375", "B": -28.77}